Measured values published in PubChem BioAssay AID651804 (National Center for Advancing Translational Sciences (NCATS), 2012).
Hit rate of the full screen: of about 1,200 compounds, about 20 (2%) were called active. Not shown: some 23% with an inconclusive outcome. Calls come from the whole dose curve; as a rule, active = well fitted inhibition curve with a large enough effect; inconclusive = small, poorly fitted or top-dose-only effect; inactive = no such curve, though single readings can be large or run the other way. The list shows a part of the results.

By UniProt entry, the sequences of proteins in these tests, tags left out. Where a name states a change or a piece, a line headed by the entry shows the natural chain unless it says otherwise.
UniProt P11308: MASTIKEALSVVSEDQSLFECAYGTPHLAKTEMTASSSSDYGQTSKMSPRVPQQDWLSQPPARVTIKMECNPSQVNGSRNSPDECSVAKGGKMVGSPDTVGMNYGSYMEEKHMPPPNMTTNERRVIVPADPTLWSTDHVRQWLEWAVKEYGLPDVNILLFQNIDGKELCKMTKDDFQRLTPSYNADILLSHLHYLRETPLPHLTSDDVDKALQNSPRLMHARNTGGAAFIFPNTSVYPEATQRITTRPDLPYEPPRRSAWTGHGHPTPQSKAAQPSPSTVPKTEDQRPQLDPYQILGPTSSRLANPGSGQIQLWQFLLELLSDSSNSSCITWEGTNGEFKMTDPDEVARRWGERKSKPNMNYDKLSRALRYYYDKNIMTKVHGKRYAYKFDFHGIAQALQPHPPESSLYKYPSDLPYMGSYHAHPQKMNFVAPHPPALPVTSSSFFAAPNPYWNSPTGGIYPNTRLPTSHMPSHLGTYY

The compounds below were run against Transcriptional regulator ERG (Homo sapiens) (UniProt P11308) (assay: qHTS for Small Molecule Inhibitors of the ERG Ets/DNA interaction: HTRF assay against cherry picks). Conditions: His-ERG Ets domain with biotin-DNA; series mostly up to 154 µM; activity change, negative = inhibition: at the top concentration.
Summary of the method: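 Compounds were incubated 10 min at RT with ERG Ets domain and biotinylated DNA (each added as 200 nM solution) in pH 7.5 Tris/KCl/EDTA/DTT buffer. Binding was read as FRET (ex 320, em 615 and 665 nm) between anti-His donor and streptavidin acceptor.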
Potency is the fitted concentration of half-maximal effect.

Row | Compound | activity change, negative = inhibition | Potency
1 | CCOC(=O)c1c(C)[nH]c(C(=O)COC(=O)CNC(=O)c2ccc(Cl)cc2Cl)c1C | inactive: 5.15% | 
2 | CC(=O)C(c1ccccc1)C(c1ccccc1)C(C)[N+](=O)[O-] (configuration not stated) | inactive: -25.3% | 
3 | COC(=O)[C@@]1(C)[C@H]2C(=O)N(Cc3ccccc3)C(=O)[C@H]2[C@H]2CN(C)C(=NC3CCCCC3)N21 | inactive: -18.7% | 
4 | O=C(COc1ccc(-c2ccccc2)cc1)N1CCN(C(=O)c2cccs2)CC1 | inactive: -23% | 
5 | CCOC(=O)c1cn(-c2nc(-c3ccc(Cl)c(Cl)c3)cs2)c2c(F)c(N3CCOCC3)c(F)cc2c1=O | inactive: 11.8% | 
6 | Cc1cccc(Cc2c(C)nc3nc(SCc4ccccc4Cl)nn3c2C)c1 | inactive: 8.7% | 
7 | O=C(NCCN1CCN(c2ccccc2)CC1)c1cccc(Br)c1 | inactive: -30.5% | 
8 | Cn1c(=O)oc2cc(S(=O)(=O)N3CCN(c4ccccc4F)CC3)ccc21 | inactive: -25.2% | 
9 | COc1ccc(OC)c(NS(=O)(=O)c2cc3c4c(c2)CCN4C(=O)CC3)c1 | inactive: -17% | 
10 | Cc1[nH]c(=O)[nH]c(=O)c1/C=N/NC(=O)[C@H](C)N | inactive: -15.9% | 
11 | Cc1cc(C)nc(NC(=O)c2ccc(Cl)cc2Cl)n1 | inactive: -7.8% | 
12 | COc1ccc(OCCN2CCN(C(=O)c3ccc(OC(F)F)c(OC)c3)CC2)cc1 | inactive: -24.6% | 
13 | CCNc1nc(NC(C)(C)C)nc(N2CCCCC2)n1 | inactive: -24.9% | 
14 | Cc1ccc(C)c(S(=O)(=O)N2CC(=O)N(CCc3ccccc3)C(=O)C2)c1 | inactive: -3.45% | 
15 | O=C(CSc1nnc(-c2cccnc2)o1)Nc1cccc(Cl)c1 | inactive: -18.7% | 
16 | Cc1cccc(OCC(=O)N(Cc2ccc(C(C)(C)C)cc2)Cc2ccco2)c1 | inactive: -14.2% | 
17 | CC(C)(C)c1ccc(OCC(=O)Nc2cccc(S(=O)(=O)NC3=NCCCCC3)c2)cc1 | inactive: -9.5% | 
18 | O=C(Nc1ccc2c(c1)OCO2)N1CCN(c2ccccc2)CC1 | inactive: -24.7% | 
19 | O=C(NC(=S)Nc1cccnc1)c1cc2ccccc2o1 | inactive: -6.68% | 
20 | O=C(Nc1ccccc1Br)c1ccccc1-c1ccccc1 | inactive: -19% | 
21 | CCCCNc1cc(F)nc(N)n1 | inactive: -27.4% | 
22 | O=C(CSc1ccccc1)NCc1ccc(F)cc1 | inactive: -4.83% | 

Row | Compound | activity change, negative = inhibition | Potency
23 | Cc1ccc2nc3c(c(C(=O)OC4CCOC4=O)c2c1)CCCC3 (configuration not stated) | inactive: -16% | 
24 | Cc1ccc2cccc(OCCCOc3ccccc3F)c2n1 | inactive: -18.5% | 
25 | CCCCOC(=O)c1ccc(N)cc1 | inactive: -0.743% | 
26 | Cc1cnc(CNC(=O)CC2C(=O)NCCN2Cc2ccccc2C(F)(F)F)cn1 (configuration not stated) | inactive: -23% | 
27 | COc1ccc(Cc2nnc(Nc3ccccc3)s2)cc1Br | inactive: -23.8% | 
28 | O=C(Cn1cc2c(n1)CCCC2)NCc1ccccn1 | inactive: -0.318% | 
29 | Clc1cccc(OCCCN2CCCC2)c1Cl | inactive: -28.1% | 
30 | O=C(O)COc1ccc(F)cc1Br | inactive: 0.318% | 
31 | CC(C)C(C(=O)O)N1CCS(=O)(=O)CC1 (configuration not stated) | inactive: -22.8% | 
32 | O=C(CC(c1ccccc1)c1cc(Cl)ccc1O)NCCCN1CCOCC1 (configuration not stated) | inactive: -25.3% | 
33 | OCCCC1CCCCN1Cc1nc(Cc2ccccc2Cl)no1 (configuration not stated) | inactive: -19.6% | 
34 | CN(C(=O)COC(=O)c1cc(S(=O)(=O)N2CCOCC2)ccc1F)C1CCS(=O)(=O)C1 (configuration not stated) | inactive: -10.2% | 
35 | CC(CN1CCCCC1)NC(=O)c1cccs1 (configuration not stated) | inactive: -23.2% | 
36 | CCOC(=O)NCc1ccc2c(c1)cc(C)n2C | inactive: -29.8% | 
37 | Cc1cccc(NC(=O)CN2C(=O)CNC2=O)c1 | inactive: -0.637% | 
38 | O=C(CN1C(=O)NC(c2ccc(F)cc2)C1=O)Nc1ccc2c(c1)OCCO2 (configuration not stated) | inactive: -20.4% | 
39 | Cc1cccc(-n2c(-c3ccccc3)c[nH]c2=S)c1C | inactive: -29.7% | 
40 | CN(C)c1nc(C=C(C#N)C#N)c(Cl)n1-c1ccc(F)cc1 | inactive: -21.9% | 
41 | Cc1occc1C(=O)NCCc1ccc(Cl)cc1 | inactive: 2.02% | 
42 | COc1ccccc1NC(=O)Cn1c(=O)n(CCC(=O)NCC2CCCO2)c(=O)c2cc(OC)c(OC)cc21 (configuration not stated) | inactive: -9.76% | 
43 | COc1ccc(S(=O)(=O)NCCNC(=O)N2CCOCC2)cc1 | inactive: -18% | 
44 | O=[N+]([O-])c1ccc(Cc2ccc([N+](=O)[O-])cc2)cc1 | inactive: -13% | 

Row | Compound | activity change, negative = inhibition | Potency
45 | Cn1c(=O)c2[nH]cnc2n(C)c1=O | inactive: 10.9% | 
46 | C/C(=N\Nc1ccc(C#N)cc1[N+](=O)[O-])c1ccc(C)o1 | inactive: -34.9% | 
47 | CC(=O)Nc1ccc(S(=O)(=O)NCCC(=O)OCC(=O)c2cc(C)ccc2C)cc1 | inactive: -11.2% | 
48 | COc1ccc(S(=O)(=O)N2CCOCC2)cc1NC(=O)CSc1nnc2n1CCCCC2 | inactive: 0% | 
49 | O=C(NCC(=O)N(c1ccccc1)C(C(=O)NC1CCCCC1)c1cccnc1)c1ccco1 (configuration not stated) | inactive: -30.2% | 
50 | COc1ccc(NC(=O)NCc2ccccn2)c(OC)c1 | inactive: -13.8% | 
51 | COC(=O)c1ccc2c(=O)n(CCN3CCOCC3)c(SCC(=O)Nc3ccc(OC)cc3OC)nc2c1 | inactive: 3.98% | 
52 | COc1ccc(OC)c(NC(=O)Cn2cnc3sc(C)c(S(=O)(=O)N4CCN(c5ccccc5OC)CC4)c3c2=O)c1 | inactive: -7.8% | 
53 | CCOC(=O)CSc1nc2ccc(NC(=O)c3ccc(F)cc3)cc2s1 | inactive: 26.8% | 
54 | COc1ccc(-c2cccc(NS(=O)(=O)c3cc([N+](=O)[O-])ccc3C)c2)nn1 | inactive: -26.3% | 
55 | NCCNc1ccc2nnnn2n1 | inactive: -26.6% | 
56 | Cc1cccn2c(CNCCc3ccccn3)c(C(=O)N3CCOCC3)nc12 | inactive: -25% | 
57 | COC(=O)c1ccc(/C=C2\Oc3ccccc3NC2=O)cc1 | inactive: -15.2% | 
58 | O=S(=O)(Nc1nc2ccccc2nc1NCc1ccco1)c1cccs1 | inactive: -29.4% | 
59 | CCOc1ccc(S(=O)(=O)N2CC(=O)Nc3ccccc32)cc1 | inactive: -26.4% | 
60 | O=C(CN1C(=O)c2ccccc2S1(=O)=O)NCCSCc1c(F)cccc1Cl | inactive: -18% | 
61 | COc1cccc(C(=O)OCC(=O)Nc2cc(C)on2)c1OC | inactive: -0.743% | 
62 | O=C(CNC(=S)N(CCCN1CCOCC1)Cc1cccs1)NC1CCCCC1 | inactive: -25.3% | 
63 | O=C(NC1CCCCCC1)c1ccc(-n2cnnc2)cc1 | inactive: -14.3% | 
64 | COc1ccc(-c2noc(Cn3c(=O)c4ccccc4n(CC(=O)Nc4cccc(C(F)(F)F)c4)c3=O)n2)cc1 | inactive: -14.5% | 
65 | NC12CC3CC(CC(C3)C1)C2 | inactive: -5.2% | 
66 | O=C(NCCN1CCCC1)c1ccc2c(c1)N(Cc1cccc(Cl)c1)C(=O)c1ccccc1S2(=O)=O | inactive: -7.32% | 

Row | Compound | activity change, negative = inhibition | Potency
67 | COc1cccc(N=C2CC(C)(C)CC(=O)/C2=C(/O)c2ccccc2)c1 | inactive: -30% | 
68 | COc1ccc(C(=O)NCC(=O)N/N=C/c2cccnc2)cc1 | inactive: -28.6% | 
69 | CC(C)CCN1CCN(C2CCN(c3ccc4c(c3)OCO4)CC2)CC1CCO (configuration not stated) | inactive: -10.5% | 
70 | COc1ccc(OCC(=O)OCc2cc(=O)n3nc(-c4cccs4)sc3n2)cc1 | inactive: 52.7% | 
71 | Cc1ccc2c(C)c(C(=O)N(C)C(C)c3ccon3)oc2c1C (configuration not stated) | inactive: 15.3% | 
72 | CC1CCCCC1NC(=O)/C(C#N)=C/c1ccc(OCC(N)=O)cc1 (configuration not stated) | inactive: -20.1% | 
73 | Cc1cccn2c(=O)cc(COc3ccc(NC(=O)C(C)C)cc3)nc12 | inactive: -16.7% | 
74 | Cc1cc(OCc2nnc(SC(C)C(=O)O)n2-c2ccccc2)ccc1Cl (configuration not stated) | inactive: -4.46% | 
75 | COc1ccccc1NS(=O)(=O)c1ccc(C)c(NC(=O)c2c(C)noc2C)c1 | inactive: -24.5% | 
76 | COC(=O)c1c(C(=O)OC)c(-c2ccc(C(C)(C)C)cc2)n2c1CS(=O)C2 (configuration not stated) | inactive: -24.7% | 
77 | Nc1ccc2nc(SCC(=O)N3CCOCC3)sc2c1 | inactive: -9.55% | 
78 | Cc1cccc(C)c1-n1cccc1/C=C1/C(=N)N2C(=NC1=O)SN=C2S(C)(=O)=O | inactive: -25.3% | 
79 | CCN(CC)C(=O)Cn1cc(C(=O)C(=O)NCCCN2CCOCC2)c2ccccc21 | inactive: -32.6% | 
80 | CS(=O)(=O)N(Cc1ccccc1)c1ccc(C(=O)Nc2ccc(Cl)cc2)cc1 | inactive: -18.8% | 
81 | CCCCn1c(N)c(N(CC(C)C)C(=O)c2ccc(S(=O)(=O)N(CC)c3ccccc3)cc2)c(=O)[nH]c1=O | inactive: -7.53% | 
82 | COc1ccc(-c2nc3c(c4nnc(SC(C)C(=O)Nc5ccc(C)cc5)n24)COC(C)(C)C3)cc1 (configuration not stated) | inactive: 6.21% | 
83 | O=C(/C=C/c1ccc([N+](=O)[O-])cc1)NCc1ccco1 |  | active: 28.2 µM
84 | Cc1ccc2nc3c(c(N)c2c1)CCN3C | inactive: -20.7% | 
85 | COc1ccc(NC(C)c2ccccc2)cc1 (configuration not stated) | inactive: -15.4% | 
86 | Oc1ccccc1/C=N/n1c(COc2ccccc2)n[nH]c1=S | inactive: -9.39% | 
87 | Cc1ccc(S(=O)(=O)N2CCCCC2)cc1NC(=O)C1CC(=O)N(c2ccc3c(c2)OCCO3)C1 (configuration not stated) | inactive: -5.57% | 
88 | COc1ccc(C(C)(C)C)cc1NC(=O)C1=CC=CN2CCS(=O)(=O)N=C12 | inactive: -15.7% | 

Structural class: those above containing a tert-butyl group (five)
Row | Compound | activity change, negative = inhibition | Potency
13 | CCNc1nc(NC(C)(C)C)nc(N2CCCCC2)n1 | inactive: -24.9% | 
16 | Cc1cccc(OCC(=O)N(Cc2ccc(C(C)(C)C)cc2)Cc2ccco2)c1 | inactive: -14.2% | 
17 | CC(C)(C)c1ccc(OCC(=O)Nc2cccc(S(=O)(=O)NC3=NCCCCC3)c2)cc1 | inactive: -9.5% | 
76 | COC(=O)c1c(C(=O)OC)c(-c2ccc(C(C)(C)C)cc2)n2c1CS(=O)C2 (configuration not stated) | inactive: -24.7% | 
88 | COc1ccc(C(C)(C)C)cc1NC(=O)C1=CC=CN2CCS(=O)(=O)N=C12 | inactive: -15.7% | 

Additional entries:

Row | Compound | activity change, negative = inhibition | Potency
89 | CCOC(=O)N1CCC(NC(=O)CSCc2nc(-c3ccc(OCC)cc3)oc2C)CC1 | inactive: -0.69% | 
90 | CCCCN(CC)C(=O)CSc1nc2n[nH]c(C)c2c(=N)n1-c1cccc(C)c1 | inactive: -20.4% | 
91 | O=C(NCc1ccc2c(c1)OCO2)NC1CCCCC1 | inactive: -7.16% | 
92 | COc1ccc(OCC(=O)NNC(=O)C2CCN(c3ncnc4sc(C)c(C)c34)CC2)cc1 | inactive: 1.96% | 
93 | COc1ccc(NC(=O)C(C)(C)Oc2ccc(Cl)cc2)cn1 | inactive: -36.2% | 
94 | COc1ccc(CCNc2oc(-c3cccc4ccccc34)nc2P(=O)(OC)OC)cc1OC | inactive: -11.9% | 
95 | CCC(=O)N1CCN(c2nc3ccc(Br)cc3s2)CC1 | inactive: -20.5% | 
96 | O=C(Nc1ccc(N2CCN(C(=O)c3cccs3)CC2)cc1)c1ccccc1Cl | inactive: 10% | 
97 | COc1cc(NCCCC(C)N)c2ncccc2c1 (configuration not stated) |  | active: 44.7 µM
98 | Cc1cccn2c(=O)c3cc(C#N)c(=NC(=O)c4ccccc4)n(Cc4ccco4)c3nc12 | inactive: 22.6% | 
99 | CCOC(=O)c1c(NC(=O)C(C)Sc2cn(CCNC(=O)c3ccc(OC)c(OC)c3)c3ccccc23)sc2c1CCC2 (configuration not stated) | inactive: -17.7% | 
100 | O=C(Nc1ccc(-c2nc3ccccc3[nH]2)cc1)c1c(F)c(F)c(F)c(F)c1F | inactive: -17.1% | 
101 | O=S(=O)(NCCC1=CCCCC1)c1ccc(OC(F)(F)F)cc1 | inactive: -7.37% | 
102 | CCC1COC(c2cccn2Cc2ccc(Cl)cc2)=N1 (configuration not stated) | inactive: 7.96% | 
103 | O=C(NC1CCCC1)C1CCC(CNS(=O)(=O)c2cccs2)CC1 (configuration not stated) | inactive: -17.6% | 
104 | O=C(CN1C(=O)COc2ccc(S(=O)(=O)N3CCCCCC3)cc21)N1CCN(c2ccccc2F)CC1 | inactive: -18.7% | 
105 | C#C[C@]1(O)CCC2C3CCC4=CC(=O)CC[C@@H]4C3CC[C@@]21C (some centres not stated) | inactive: -23.4% | 
106 | C/C(=N/OCO/N=C(\C)c1ccccc1)c1ccccc1 | inactive: -23% | 
107 | O=C(Nc1cc2c(cc1Cl)-c1ccc([N+](=O)[O-])cc1C2=NO)C(F)(F)F | inactive: -54.7% | 
